Results published in PMC10202830, “Cingulin and paracingulin tether myosins-2 to junctions to mechanoregulate the plasma membrane” (The Journal of Cell Biology, 2023).
These are yes or no findings as the source states them, for the method shown. For some assays here: A result given as binding can be weak or reduced; the word gives no strength. Where a sequence is shown, tags or fusion partners need not be part of it. For some assays here: In cells and extracts the contact can be indirect. Values belong to the molecule of their own block, whether it stands above or below them.

The chains behind the UniProt entries cited, without tags or fusion partners. Where a name states a change or a piece, a line headed by the entry shows the natural chain unless it says otherwise.
UniProt P35580: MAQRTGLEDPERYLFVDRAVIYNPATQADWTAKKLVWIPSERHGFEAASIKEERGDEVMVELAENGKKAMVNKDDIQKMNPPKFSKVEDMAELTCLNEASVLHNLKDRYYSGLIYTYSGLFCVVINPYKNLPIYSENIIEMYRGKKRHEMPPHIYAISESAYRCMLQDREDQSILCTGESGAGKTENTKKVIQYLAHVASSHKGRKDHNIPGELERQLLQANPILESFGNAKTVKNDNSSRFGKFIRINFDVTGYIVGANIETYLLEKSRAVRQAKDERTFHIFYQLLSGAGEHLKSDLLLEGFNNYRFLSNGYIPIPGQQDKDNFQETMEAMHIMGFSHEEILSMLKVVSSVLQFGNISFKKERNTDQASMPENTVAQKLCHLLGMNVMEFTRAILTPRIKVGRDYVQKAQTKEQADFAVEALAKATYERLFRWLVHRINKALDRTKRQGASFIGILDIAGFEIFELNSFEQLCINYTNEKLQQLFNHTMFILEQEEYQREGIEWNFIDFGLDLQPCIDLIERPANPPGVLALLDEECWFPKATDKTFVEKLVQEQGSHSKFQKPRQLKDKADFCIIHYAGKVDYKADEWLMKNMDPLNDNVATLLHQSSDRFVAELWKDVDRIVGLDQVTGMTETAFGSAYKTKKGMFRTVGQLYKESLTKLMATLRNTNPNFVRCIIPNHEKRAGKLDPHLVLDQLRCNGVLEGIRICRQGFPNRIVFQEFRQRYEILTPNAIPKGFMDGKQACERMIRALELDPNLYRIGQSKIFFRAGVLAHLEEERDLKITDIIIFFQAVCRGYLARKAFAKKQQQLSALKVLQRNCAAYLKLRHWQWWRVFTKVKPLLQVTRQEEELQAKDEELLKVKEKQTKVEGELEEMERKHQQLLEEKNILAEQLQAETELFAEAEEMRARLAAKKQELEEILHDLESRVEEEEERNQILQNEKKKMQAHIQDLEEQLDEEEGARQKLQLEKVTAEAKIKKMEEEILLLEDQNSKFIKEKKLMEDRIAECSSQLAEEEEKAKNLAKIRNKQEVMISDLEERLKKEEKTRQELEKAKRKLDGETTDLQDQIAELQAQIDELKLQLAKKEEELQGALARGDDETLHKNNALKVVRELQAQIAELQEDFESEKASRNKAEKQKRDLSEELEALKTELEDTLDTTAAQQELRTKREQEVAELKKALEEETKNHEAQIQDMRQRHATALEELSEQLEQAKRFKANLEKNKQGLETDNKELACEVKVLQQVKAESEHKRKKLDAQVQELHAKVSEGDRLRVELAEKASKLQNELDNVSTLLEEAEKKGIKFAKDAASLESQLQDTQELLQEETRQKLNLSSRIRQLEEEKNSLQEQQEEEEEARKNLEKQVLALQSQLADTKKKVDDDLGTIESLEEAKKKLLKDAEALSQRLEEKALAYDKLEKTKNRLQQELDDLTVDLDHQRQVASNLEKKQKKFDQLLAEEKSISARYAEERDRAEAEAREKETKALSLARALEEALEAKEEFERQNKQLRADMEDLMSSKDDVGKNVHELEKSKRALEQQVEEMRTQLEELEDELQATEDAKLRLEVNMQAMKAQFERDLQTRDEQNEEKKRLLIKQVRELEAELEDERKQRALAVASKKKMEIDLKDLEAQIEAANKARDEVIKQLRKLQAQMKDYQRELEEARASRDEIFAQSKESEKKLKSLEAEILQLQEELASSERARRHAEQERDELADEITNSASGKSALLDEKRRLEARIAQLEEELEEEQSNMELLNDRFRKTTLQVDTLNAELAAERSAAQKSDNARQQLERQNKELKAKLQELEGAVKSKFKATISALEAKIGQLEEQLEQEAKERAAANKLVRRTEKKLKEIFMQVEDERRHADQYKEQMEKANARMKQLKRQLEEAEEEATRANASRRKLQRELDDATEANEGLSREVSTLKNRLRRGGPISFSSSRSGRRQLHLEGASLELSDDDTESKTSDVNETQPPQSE

How the values were obtained:
[1] = target: T1, GST-cNM2A (1711–1960) (canis (dog)) (UniProt Q258K2); experiment: pull-down; GST-tagged C-terminal (last 250 residues, rod+tail) fragments of NM2s as baits; GFP-tagged full-length or C-terminally truncated CGN or CGNL1 in HEK lysates as preys; IB with anti-GFP (Fig. S1 E–G, J–O); only the target purified
T1 sequence: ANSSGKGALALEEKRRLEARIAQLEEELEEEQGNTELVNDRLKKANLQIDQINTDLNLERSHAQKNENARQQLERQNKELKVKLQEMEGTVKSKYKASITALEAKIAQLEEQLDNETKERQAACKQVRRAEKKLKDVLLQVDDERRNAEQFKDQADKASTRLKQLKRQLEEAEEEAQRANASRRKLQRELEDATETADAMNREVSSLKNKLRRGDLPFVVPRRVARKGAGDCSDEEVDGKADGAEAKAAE

GST-CGN (1015–1203) = target: T2, GST-CGN (1015–1203) (UniProt Q9P2M7); experiment: pull-down; GST-fusion fragments of CGN or CGNL1 as baits; NM2 rod fragments purified from bacteria as preys; IB with anti-NM2 antibodies (Fig. S1 C, D); both purified
T2 sequence: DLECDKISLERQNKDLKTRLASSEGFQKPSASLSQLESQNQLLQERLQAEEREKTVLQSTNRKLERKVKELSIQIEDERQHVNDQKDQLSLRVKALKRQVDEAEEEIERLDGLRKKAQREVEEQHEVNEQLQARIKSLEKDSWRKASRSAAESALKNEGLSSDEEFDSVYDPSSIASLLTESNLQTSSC

[2] = target: T3, GST-hCGNL1 (1105–1302) (human) (UniProt Q0VF96); experiment: as above
T3 sequence: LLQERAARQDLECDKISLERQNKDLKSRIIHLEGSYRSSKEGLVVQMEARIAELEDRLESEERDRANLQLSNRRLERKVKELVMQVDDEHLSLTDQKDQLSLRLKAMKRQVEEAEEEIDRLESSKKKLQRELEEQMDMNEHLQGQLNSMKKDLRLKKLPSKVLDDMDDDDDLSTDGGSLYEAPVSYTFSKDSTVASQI

[3] = target: T4, GST-hCGNL1 (421–603) (human) (UniProt Q0VF96); experiment: as above
T4 sequence: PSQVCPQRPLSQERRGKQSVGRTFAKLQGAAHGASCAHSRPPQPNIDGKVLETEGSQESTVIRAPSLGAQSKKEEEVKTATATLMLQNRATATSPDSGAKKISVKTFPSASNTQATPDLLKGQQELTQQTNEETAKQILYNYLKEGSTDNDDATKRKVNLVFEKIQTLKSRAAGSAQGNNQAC

GST-CGN (1–226) = target: T5, GST-CGN (1–226) (UniProt Q9P2M7); experiment: as above
T5 sequence: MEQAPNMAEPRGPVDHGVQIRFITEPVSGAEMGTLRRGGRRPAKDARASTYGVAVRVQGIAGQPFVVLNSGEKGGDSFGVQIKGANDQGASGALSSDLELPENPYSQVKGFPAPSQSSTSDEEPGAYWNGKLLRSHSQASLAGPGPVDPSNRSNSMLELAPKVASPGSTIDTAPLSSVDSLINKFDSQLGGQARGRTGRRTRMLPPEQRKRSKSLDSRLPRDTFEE

[4] = target: GST-cNM2B (1507–2006) (canis (dog)); experiment: pull-down; affinity purified GST-tagged cNM2A, cNM2B, cNM2C rod fragments as baits; His-tagged full-length CGN and CGNL1 purified from baculovirus-infected insect cells as preys; IB with anti-His (Fig. 1 H–J); both purified
[5] = target: GST-cNM2B (1757–2006) (canis (dog)); experiment: as above
[6] = target: GST-cNM2B (1906–2006) (canis (dog)); experiment: as above
[7] = target: GST-cNM2C (1566–2065) (canis (dog)); experiment: as above
[8] = target: GST-cNM2C (1816–2065) (canis (dog)); experiment: as above
[9] = target: hNM2B rod (1337–1976), purified (human) (UniProt P35580); experiment: co-sedimentation; filament pelleting assay: NM2B Rod, CGN Rod2 or both at 5 μM, dialysed overnight against 10 mM sodium phosphate, 150 mM NaCl, 2 MgCl2; 45,000 rpm 1 h 4°C; supernatant and pellet by SDS-PAGE; both purified

binding [1]: binds
Molecule: GFP-cCGNL1-myc-Δ878-1295 (1–877aa) (canis (dog)) (domain or fragment)

binding (GST-CGN (1015–1203)): no binding
binding [2]: binds
binding [3]: no binding
Molecule: hNM2A rod (1330–1960), purified (from UniProt P35579) (domain or fragment)

binding (GST-CGN (1015–1203)): binds
binding (GST-CGN (1–226)): no binding
binding [2]: binds
binding [3]: no binding
Molecule: hNM2B rod (1337–1976), purified (from UniProt P35580) (domain or fragment)

Continued, molecule first:

Molecule: GFP-cCGN-myc-Δ1003-1190 (1–1,002aa) (canis (dog)) (domain or fragment)
binding [1]: binds weakly

B1: full-length hCGN (CGN-FL-10xHis-2xStrep), purified (protein, UniProt Q9P2M7 1-1203)
chain: MEQAPNMAEPRGPVDHGVQIRFITEPVSGAEMGTLRRGGRRPAKDARASTYGVAVRVQGIAGQPFVVLNSGEKGGDSFGVQIKGANDQGASGALSSDLELPENPYSQVKGFPAPSQSSTSDEEPGAYWNGKLLRSHSQASLAGPGPVDPSNRSNSMLELAPKVASPGSTIDTAPLSSVDSLINKFDSQLGGQARGRTGRRTRMLPPEQRKRSKSLDSRLPRDTFEERERQSTNHWTSSTKYDNHVGTSKQPAQSQNLSPLSGFSRSRQTQDWVLQSFEEPRRSAQDPTMLQFKSTPDLLRDQQEAAPPGSVDHMKATIYGILREGSSESETSVRRKVSLVLEKMQPLVMVSSGSTKAVAGQGELTRKVEELQRKLDEEVKKRQKLEPSQVGLERQLEEKTEECSRLQELLERRKGEAQQSNKELQNMKRLLDQGEDLRHGLETQVMELQNKLKHVQGPEPAKEVLLKDLLETRELLEEVLEGKQRVEEQLRLRERELTALKGALKEEVASRDQEVEHVRQQYQRDTEQLRRSMQDATQDHAVLEAERQKMSALVRGLQRELEETSEETGHWQSMFQKNKEDLRATKQELLQLRMEKEEMEEELGEKIEVLQRELEQARASAGDTRQVEVLKKELLRTQEELKELQAERQSQEVAGRHRDRELEKQLAVLRVEADRGRELEEQNLQLQKTLQQLRQDCEEASKAKMVAEAEATVLGQRRAAVETTLRETQEENDEFRRRILGLEQQLKETRGLVDGGEAVEARLRDKLQRLEAEKQQLEEALNASQEEEGSLAAAKRALEARLEEAQRGLARLGQEQQTLNRALEEEGKQREVLRRGKAELEEQKRLLDRTVDRLNKELEKIGEDSKQALQQLQAQLEDYKEKARREVADAQRQAKDWASEAEKTSGGLSRLQDEIQRLRQALQASQAERDTARLDKELLAQRLQGLEQEAENKKRSQDDRARQLKGLEEKVSRLETELDEEKNTVELLTDRVNRGRDQVDQLRTELMQERSARQDLECDKISLERQNKDLKTRLASSEGFQKPSASLSQLESQNQLLQERLQAEEREKTVLQSTNRKLERKVKELSIQIEDERQHVNDQKDQLSLRVKALKRQVDEAEEEIERLDGLRKKAQREVEEQHEVNEQLQARIKSLEKDSWRKASRSAAESALKNEGLSSDEEFDSVYDPSSIASLLTESNLQTSSC
binding [4]: binds
binding [5]: binds
binding [6]: no binding
binding [7]: binds weakly
binding [8]: binds weakly

B2: full-length hCGNL1 (10xHis-2xStrep), purified (protein, UniProt Q0VF96 1-1302)
chain: MELYFGEYQHVQQEYGVHLRLASDDTQKSRSSQNSKAGSYGVSIRVQGIDGHPYIVLNNTERCLAGTSFSENGPPFPPPVINNLPLHSSNGSVPKENSEELQLPENPYAQPSPIRNLKQPLLHEGKNGVLDRKDGSVKPSHLLNFQRHPELLQPYDPEKNELNLQNHQPSESNWLKTLTEEGINNKKPWTCFPKPSNSQPTSPSLEDPAKSGVTAIRLCSSVVIEDPKKQTSVCVNVQSCTKERVGEEALFTSGRPLTAHSPHAHPETKKTRPDVLPFRRQDSAGPVLDGARSRRSSSSSTTPTSANSLYRFLLDDQECAIHADNVNRHENRRYIPFLPGTGRDIDTGSIPGVDQLIEKFDQKPGLQRRGRSGKRNRINTDDRKRSRSVDSAFPFGLQGNSEYLIEFSRNLGKSSEHLLRPSQVCPQRPLSQERRGKQSVGRTFAKLQGAAHGASCAHSRPPQPNIDGKVLETEGSQESTVIRAPSLGAQSKKEEEVKTATATLMLQNRATATSPDSGAKKISVKTFPSASNTQATPDLLKGQQELTQQTNEETAKQILYNYLKEGSTDNDDATKRKVNLVFEKIQTLKSRAAGSAQGNNQACNSTSEVKDLLEQKSKLTIEVAELQRQLQLEVKNQQNIKEERERMRANLEELRSQHNEKVEENSTLQQRLEESEGELRKNLEELFQVKMEREQHQTEIRDLQDQLSEMHDELDSAKRSEDREKGALIEELLQAKQDLQDLLIAKEEQEDLLRKRERELTALKGALKEEVSSHDQEMDKLKEQYDAELQALRESVEEATKNVEVLASRSNTSEQDQAGTEMRVKLLQEENEKLQGRSEELERRVAQLQRQIEDLKGDEAKAKETLKKYEGEIRQLEEALVHARKEEKEAVSARRALENELEAAQGNLSQTTQEQKQLSEKLKEESEQKEQLRRLKNEMENERWHLGKTIEKLQKEMADIVEASRTSTLELQNQLDEYKEKNRRELAEMQRQLKEKTLEAEKSRLTAMKMQDEMRLMEEELRDYQRAQDEALTKRQLLEQTLKDLEYELEAKSHLKDDRSRLVKQMEDKVSQLEMELEEERNNSDLLSERISRSREQMEQLRNELLQERAARQDLECDKISLERQNKDLKSRIIHLEGSYRSSKEGLVVQMEARIAELEDRLESEERDRANLQLSNRRLERKVKELVMQVDDEHLSLTDQKDQLSLRLKAMKRQVEEAEEEIDRLESSKKKLQRELEEQMDMNEHLQGQLNSMKKDLRLKKLPSKVLDDMDDDDDLSTDGGSLYEAPVSYTFSKDSTVASQI
binding [4]: binds
binding [5]: binds
binding [6]: no binding
binding [7]: binds weakly
binding [8]: binds weakly

B3: His-tagged hCGN Rod2 (667–1203), purified (domain or fragment, UniProt Q9P2M7 667-1203)
chain: AVLRVEADRGRELEEQNLQLQKTLQQLRQDCEEASKAKMVAEAEATVLGQRRAAVETTLRETQEENDEFRRRILGLEQQLKETRGLVDGGEAVEARLRDKLQRLEAEKQQLEEALNASQEEEGSLAAAKRALEARLEEAQRGLARLGQEQQTLNRALEEEGKQREVLRRGKAELEEQKRLLDRTVDRLNKELEKIGEDSKQALQQLQAQLEDYKEKARREVADAQRQAKDWASEAEKTSGGLSRLQDEIQRLRQALQASQAERDTARLDKELLAQRLQGLEQEAENKKRSQDDRARQLKGLEEKVSRLETELDEEKNTVELLTDRVNRGRDQVDQLRTELMQERSARQDLECDKISLERQNKDLKTRLASSEGFQKPSASLSQLESQNQLLQERLQAEEREKTVLQSTNRKLERKVKELSIQIEDERQHVNDQKDQLSLRVKALKRQVDEAEEEIERLDGLRKKAQREVEEQHEVNEQLQARIKSLEKDSWRKASRSAAESALKNEGLSSDEEFDSVYDPSSIASLLTESNLQTSSC
binding [9]: binds
